Experimental data: ChEMBL document CHEMBL5210307, “Affinity Biochemical Literature for EUbOPEN Chemogenomics Library wave 3” (2023)
pIC50: −log10 of the molar value.

Target: T1, Tyrosine-protein kinase JAK3 (Homo sapiens, UniProt P52333)
T1 sequence (P52333 whole entry): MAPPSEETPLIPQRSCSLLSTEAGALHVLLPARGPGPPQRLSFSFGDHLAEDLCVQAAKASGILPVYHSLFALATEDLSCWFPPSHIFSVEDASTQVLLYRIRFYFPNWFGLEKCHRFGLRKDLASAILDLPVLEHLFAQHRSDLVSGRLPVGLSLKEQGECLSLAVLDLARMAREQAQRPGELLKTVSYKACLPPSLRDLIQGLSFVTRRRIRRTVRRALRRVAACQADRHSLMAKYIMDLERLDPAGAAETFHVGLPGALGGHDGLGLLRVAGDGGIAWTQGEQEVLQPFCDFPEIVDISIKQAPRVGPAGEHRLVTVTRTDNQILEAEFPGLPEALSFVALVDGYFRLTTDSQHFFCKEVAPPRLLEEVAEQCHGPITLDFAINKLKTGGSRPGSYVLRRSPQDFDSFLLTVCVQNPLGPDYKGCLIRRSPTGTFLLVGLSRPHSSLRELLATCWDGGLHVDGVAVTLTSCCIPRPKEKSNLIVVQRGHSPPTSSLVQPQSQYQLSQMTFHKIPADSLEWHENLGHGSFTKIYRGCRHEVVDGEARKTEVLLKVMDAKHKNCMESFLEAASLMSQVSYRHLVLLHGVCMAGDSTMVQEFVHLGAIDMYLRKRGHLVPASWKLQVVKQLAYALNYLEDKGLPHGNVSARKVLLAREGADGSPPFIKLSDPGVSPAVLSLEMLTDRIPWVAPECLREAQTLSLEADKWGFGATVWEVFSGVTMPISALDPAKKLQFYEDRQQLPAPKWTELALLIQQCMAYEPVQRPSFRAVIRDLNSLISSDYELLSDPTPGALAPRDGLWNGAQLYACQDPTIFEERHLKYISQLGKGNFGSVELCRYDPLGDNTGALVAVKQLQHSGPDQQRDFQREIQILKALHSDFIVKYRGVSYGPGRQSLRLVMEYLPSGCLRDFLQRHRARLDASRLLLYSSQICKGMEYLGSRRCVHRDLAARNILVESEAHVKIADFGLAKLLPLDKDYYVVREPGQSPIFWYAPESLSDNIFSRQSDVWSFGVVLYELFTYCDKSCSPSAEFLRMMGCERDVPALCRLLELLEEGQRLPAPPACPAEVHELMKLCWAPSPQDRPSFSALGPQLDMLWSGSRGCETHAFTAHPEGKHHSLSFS

Molecule `CN(C)C(=O)/C(C#N)=C/c1ccc(-c2nc3cnc4[nH]ccc4c3n2C2CCCCC2)o1` has a pIC50 of 9.81.
